The source of these data is article PMC6825352, “Ghd8 controls rice photoperiod sensitivity by forming a complex that interacts with Ghd7”.

For some of these results: No signal at the amounts used counts as a negative. For some of these results: At least one verdict was read from the data and is not stated in words by the source. For some of these results: For at least one entry, the source does not settle the construct or the ends of the probe. For some of these results: A weaker result is weaker than the reference pair of the same experiment. For some of these results: Tags and fusion partners may be left off the protein sequences shown.

Assay in all cases: EMSA
For orientation: A gel shift assay detects complexes by their altered migration in electrophoresis.

Data set [1] concerns HD1 (MBP-HD1) + GHD8 (His-GHD8, NF-YB) + OsHAP5b (His-HAP5b, NF-YC). The conditions noted are these: negative control probe lacking CCAAT; 5 mM Tris pH 7.5, 25 mM KCl, 0.5 mM DTT, 5 mM MgCl2, 2.5% glycerol, 0.05% NP-40, 50 ng/uL poly(dI-dC), room temperature 20 min, 5% polyacrylamide gel; recombinant protein; label: biotin.
The target in data set [2] is T1, HD1 (MBP-HD1) (Oryza sativa (rice)) (UniProt Q9FDX8).
T1 sequence (looked up, limits assumed): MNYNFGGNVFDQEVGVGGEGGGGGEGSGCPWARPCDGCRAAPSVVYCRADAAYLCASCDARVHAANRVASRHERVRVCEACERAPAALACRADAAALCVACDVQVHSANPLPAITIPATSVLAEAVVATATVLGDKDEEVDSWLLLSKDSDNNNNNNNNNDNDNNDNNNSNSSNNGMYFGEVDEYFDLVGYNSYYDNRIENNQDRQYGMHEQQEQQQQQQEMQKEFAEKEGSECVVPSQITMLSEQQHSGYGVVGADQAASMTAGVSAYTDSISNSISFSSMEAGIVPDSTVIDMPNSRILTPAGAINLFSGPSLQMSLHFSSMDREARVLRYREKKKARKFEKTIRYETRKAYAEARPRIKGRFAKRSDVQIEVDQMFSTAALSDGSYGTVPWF
Conditions: HD1 alone, competed by 25x/100x unlabeled F1; 5 mM Tris pH 7.5, 25 mM KCl, 0.5 mM DTT, 5 mM MgCl2, 2.5% glycerol, 0.05% NP-40, 50 ng/uL poly(dI-dC), room temperature 20 min, 5% polyacrylamide gel; recombinant protein; protein details: MBP (pMAL-c2X, text says MBP 'at the down-stream'); label: 3'-biotin.

A further data set addresses MBP (UniProt P0AEX9). The conditions noted are these: negative control; 5 mM Tris pH 7.5, 25 mM KCl, 0.5 mM DTT, 5 mM MgCl2, 2.5% glycerol, 0.05% NP-40, 50 ng/uL poly(dI-dC), room temperature 20 min, 5% polyacrylamide gel; recombinant protein; label: 3'-biotin.

Regarding “ATCTGACAGCTGACGGGCAGCTACATGAGGAGTCG (double strand) [MF2]”, in data set [1], the binding result is reported as “no binding”.
In the case of “ATCTGGTTGCAATGGGGATGGCCAATGAGGAGTCG (double strand) [F1]”, the binding result in data set [2] is reported as “binds more weakly”; in the data set with MBP, “no binding”.
As to “ATCTGGTTGTAATGGGGATGGTACATGAGGAGTCG (double strand) [MF1]”, the binding result in data set [1] is given as “no binding”.
